Source: article PMC9638919, “DAZL regulates proliferation of human primordial germ cells by direct binding to precursor miRNAs and enhances DICER processing activity”

How the values were obtained:
GST = test: EMSA; conditions: 10 mM HEPES pH 7.4, 50 mM KCl, 1 mM EDTA, 0.05% Triton X-100, 5% glycerol, 0.01 mg/ml BSA, 1 mM DTT; 10 nM FAM-RNA, 40 min; temperature not stated; recombinant protein; label: 5'-FAM
GST-DAZL = target: T1, GST-DAZL (UniProt Q92904); test: EMSA; conditions: not significantly affected; 10 mM HEPES pH 7.4, 50 mM KCl, 1 mM EDTA, 0.05% Triton X-100, 5% glycerol, 0.01 mg/ml BSA, 1 mM DTT; 10 nM FAM-RNA, 40 min; temperature not stated; recombinant protein; protein details: N-terminal GST; label: 5'-FAM
T1 sequence (looked up, limits assumed): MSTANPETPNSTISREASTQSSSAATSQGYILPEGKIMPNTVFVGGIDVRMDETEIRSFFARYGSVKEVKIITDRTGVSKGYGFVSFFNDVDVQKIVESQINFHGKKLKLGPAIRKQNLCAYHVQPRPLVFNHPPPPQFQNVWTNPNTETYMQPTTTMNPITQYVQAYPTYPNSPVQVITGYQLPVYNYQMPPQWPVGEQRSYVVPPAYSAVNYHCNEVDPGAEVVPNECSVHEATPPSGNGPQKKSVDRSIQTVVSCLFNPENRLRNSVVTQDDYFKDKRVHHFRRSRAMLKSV

Row | Sequence | binding result (GST) | binding result (GST-DAZL)
1 | GCAUCCGGGUUGAGGUAGUAGGUUGUAUGGUUUAGAGUUACACCCUGGGAGUUAACUGUACAACCUUCUAGCUUUCCUUGGAGC [pre-let-7c] | no binding | 
2 | UAGAGUUACACCCUGGGAGUUUA [pre-let-7c loop, A after second GUU to U] |  | binds
3 | UAGAGUUUCACCCUGGGAGUUAA [pre-let-7c loop, A after first GUU to U] |  | binds

For at least one entry, the source does not settle the construct or the ends of the probe. For part of these data: A negative result means that nothing was seen under these conditions. For part of these data: At least one verdict rests on a figure or table, not on a statement of the authors. For part of these data: Where a protein sequence is shown, tags need not be part of it.
